Measurements from PubChem BioAssay AID504444 (National Center for Advancing Translational Sciences (NCATS), 2011).
The campaign covered roughly 360,000 compounds. About 7,500 (2.1%) were called active. The inconclusive results got no clear call from the source; some entries with a clear call stand among them for comparison. Calls follow the shape of the dose curve; as a rule, active = well fitted inhibition curve with a large enough effect; inconclusive = small, poorly fitted or top-dose-only effect, or effect the other way; inactive = flat fitted curve, though single readings scatter. Potencies beside an inconclusive call are fits to weak or partial responses and may not hold up.

assay: Nrf2 qHTS screen for inhibitors; details: A549 ARE-Fluc reporter, luciferase luminescence, 18-24 h; activity change, negative = inhibition: at 46 µM (top of the series); also: nearly all actives have a fitted effect of over 60% in size
Method in brief: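 Concentration-response testing used A549 ARE_Fluc cells at 5000 cells/well. Following an 18-24 h compound incubation, viability was read by fluorescence (Ex 405/Em 525) and luciferase output by luminescence.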
% is scaled to controls: 0 for no effect and ±100 for the full control effect; potency is read from the fitted curve at half-maximal effect.

With `CCCn1c(SCC(=O)NCCc2ccc(OC)c(OC)c2)nc2c1c(=O)n(C)c(=O)n2C` as the molecule, how does the Potency read?
The Potency was inconclusive: 25.9 µM [activator, single point].

With `Cc1cc(C)c(-n2nnnc2SCC(=O)c2cccs2)c(C)c1` as the molecule, how does the Potency read?
Its Potency is inconclusive: 29.1 µM [falling, single point].

For `CC(C)(C)n1nnnc1C(c1cccc(C(F)(F)F)c1)N1CCC(O)CC1` (configuration not stated), which “activity change, negative = inhibition” value is on record?
Its value is inactive: -14.2%.

With `COc1ccc(NC(=O)CSCc2ccccc2C)cc1` as the molecule, how does the Potency read?
Its Potency is inconclusive: 3.26 µM [activator, full curve].

Which Potency does the source give for `COc1ccc(NC(=O)c2c(C)noc2-c2snnc2C)cc1` here?
Its Potency is inconclusive: 16.4 µM [activator, partial curve].

Which Potency does the source give for `COc1ccc(CCN2CC(C(=O)N(C)CC(=O)Nc3ccc(Cl)c(C(F)(F)F)c3)CC2=O)cc1OC` (configuration not stated) here?
Its Potency is inconclusive: 18.4 µM [falling, single point].

Which Potency does the source give for `CCc1ccc(CNC(=O)c2ccc(NC(=O)C3=CSCCO3)cc2)cc1` here?
The Potency was inconclusive: 29.1 µM [falling, single point].

For `CC(C)C(=O)NC(c1cccc([N+](=O)[O-])c1)c1c(O)ccc2ccccc12` (configuration not stated), which Potency is on record?
Its Potency is inconclusive: 16.4 µM [activator, single point].

With `CCOc1ccc(N(CC(=O)NC2CCCCCC2)S(=O)(=O)c2c(C)[nH]c(=O)[nH]c2=O)cc1` as the molecule, how does the “activity change, negative = inhibition” value read?
The value was inactive: -13.3%.

Which Potency does the source give for `Clc1cccc(NCc2cn3cccnc3n2)c1` here?
The Potency was inconclusive: 0.58 µM [activator, full curve, poor fit].

For `COc1cc2ncnc(N(C)Cc3cccs3)c2cc1-c1ccc2c(c1)OCO2`, which “activity change, negative = inhibition” value is on record?
Its value is inactive: -9.57%.

Which Potency does the source give for `COc1ccc(C#Cc2c(C=O)n(C)c3ccccc23)cc1` here?
The Potency was inconclusive: 29.1 µM [falling, single point].

With `O=C(OCC(=O)N(Cc1ccccc1)Cc1ccccc1)c1ccccc1NCCO` as the molecule, how does the “activity change, negative = inhibition” value read?
Its value is inactive: 14.5%.

For `CC(C)CNC(=O)C(=O)Nc1cc2c3c(c1)CCC(=O)N3CCC2`, which Potency is on record?
Its Potency is inconclusive: 0.0259 µM [falling, full curve, poor fit].

With `Cc1ccc(NC(=O)C2CC(=O)Nc3nncn32)cc1` (configuration not stated) as the molecule, how does the Potency read?
The Potency was inconclusive: 6.51 µM [activator, partial curve, poor fit].

Which Potency does the source give for `O=C(Nc1ccc2c(c1)OCO2)c1cnn2cccnc12` here?
The Potency was inconclusive: 0.651 µM [activator, full curve].

With `CCc1ccc(CNC(=O)c2cccc(-n3c(C)nc4cccnc43)c2)cc1` as the molecule, how does the Potency read?
The Potency was inconclusive: 23.1 µM [falling, partial curve].

Which Potency does the source give for `CCCc1ccc(OCc2ccc(C(=O)Nc3ccccc3C(=O)OC)o2)cc1` here?
Its Potency is inconclusive: 2.91 µM [activator, partial curve].

For `Cc1ccc2oc(C(=O)N3CCC(c4nc5ccccc5s4)CC3)c(C)c2c1`, which Potency is on record?
The Potency was inconclusive: 29.1 µM [falling, single point].

For `COc1ccc(N(CC(=O)N2CCCCC2)S(=O)(=O)c2ccc(OC)c(OC)c2)cc1`, which “activity change, negative = inhibition” value is on record?
Its value is inactive: -5.55%.

With `COc1ccc(N2CCN(CC(=O)Nc3nc4c(s3)CC(C)CC4)CC2)cc1` (configuration not stated) as the molecule, how does the Potency read?
The Potency was inconclusive: 13 µM [falling, partial curve, poor fit].

Which Potency does the source give for `O=C(COc1ccc2ccccc2c1)Nc1ccc(S(=O)(=O)N2CCCCCC2)cc1` here?
The Potency was inconclusive: 11.2 µM [falling, partial curve].

Which Potency does the source give for `Cc1nc2ccccc2n1CC(O)COCC1CC=CCC1` (configuration not stated) here?
Its Potency is inconclusive: 9.2 µM [falling, partial curve, poor fit].

For `COc1ccc(S(=O)(=O)N/N=C(/C)c2ccc(Cl)cc2)cc1`, which Potency is on record?
The Potency was inconclusive: 0.0517 µM [falling, full curve, poor fit].

With `COc1cc(C2CC(=O)c3cnc(N4CCN(Cc5ccccc5)CC4)nc3C2)cc(OC)c1OC` (configuration not stated) as the molecule, how does the Potency read?
The Potency was inconclusive: 11.6 µM [falling, partial curve, poor fit].

For `CCOC(=O)c1cc2c(=O)n3ccccc3nc2n(Cc2ccccc2)c1=N`, which Potency is on record?
The Potency was inconclusive: 3.26 µM [activator, single point].

With `CCc1cccc(NC(=O)C2CCCN2S(=O)(=O)c2ccc3nc(-c4ccccc4)[nH]c3c2)c1` (configuration not stated) as the molecule, how does the Potency read?
The Potency was inconclusive: 29.1 µM [falling, single point].

For `COc1ccc2c(c1)-c1c(sn(-c3ccccc3)c1=S)C(C)(C)N2`, which “activity change, negative = inhibition” value is on record?
The value was inactive: -5.75%.

With `CC(=O)c1ccc(NC(=O)CCn2cccn2)cc1` as the molecule, how does the Potency read?
Its Potency is inconclusive: 23.1 µM [activator, partial curve].

Which Potency does the source give for `CN(C)c1ccc(NC(=O)CSc2nc(C3CC3)nc3ccccc23)cc1` here?
Its Potency is inconclusive: 32.6 µM [falling, single point].

For `Cc1cc2c(cc1C)N(C(=O)CCl)CCN2C(=O)CCl`, which Potency is on record?
The Potency was inconclusive: 23.1 µM [falling, single point].

Which Potency does the source give for `CCCNC(=O)c1ccc2c(c1)ncn2-c1cc(C)cc(C)c1` here?
Its Potency is inconclusive: 10.3 µM [falling, partial curve].

Which Potency does the source give for `COC(=O)c1ccccc1N=Nc1c(C)n[nH]c1C` here?
Its Potency is inconclusive: 16.4 µM [falling, single point].

Which Potency does the source give for `Cc1ccc(-c2nnc(N3CCCCCC3)c3ccccc23)cc1` here?
Its Potency is active: 23.1 µM.

Which “activity change, negative = inhibition” value does the source give for `CCOC(=O)NC1(C(F)(F)F)NC(=O)N(c2ccc(F)cc2)C1=O` (configuration not stated) here?
The value was inactive: -2.24%.

With `N#Cc1ccc(OCc2nnc(SCC(=O)c3ccccc3)n2-c2ccccc2)cc1` as the molecule, how does the “activity change, negative = inhibition” value read?
The value was inactive: -1.12%.

Which Potency does the source give for `O=C(O)CCC(=O)Nc1ccc(C(=O)OC2CCCCC2)cc1` here?
Its Potency is inconclusive: 13 µM [falling, partial curve].

Which Potency does the source give for `CCN(C[C@H]1N[C@@](Cc2ccccc2)(C(=O)OC)[C@H]2C(=O)N(Cc3ccccc3)C(=O)[C@@H]12)C(=O)Nc1ccc(Cl)cc1` here?
Its Potency is inconclusive: 32.6 µM [falling, single point].

With `COc1ccc(NC(=O)CC2CCCC2)cc1OC` as the molecule, how does the Potency read?
Its Potency is inconclusive: 29.1 µM [activator, single point].

With `Cc1nc2ccc(NS(=O)(=O)c3c(F)cc(F)cc3Br)cc2s1` as the molecule, how does the Potency read?
Its Potency is active: 20.6 µM.

For `Cc1ccc(OCCN2CCN(c3nc(NCc4ccco4)c4ccccc4n3)CC2)cc1`, which Potency is on record?
Its Potency is inconclusive: 29.1 µM [falling, single point].

With `Cc1cc2c(cc1C)CN(c1ccccc1)C2` as the molecule, how does the Potency read?
The Potency was inconclusive: 5.8 µM [activator, partial curve].

With `Cc1cccc(Nc2nn3c(=O)c4ccccc4nc3s2)c1` as the molecule, how does the Potency read?
The Potency was inconclusive: 16.4 µM [activator, partial curve].

Which Potency does the source give for `O=C(c1ccccc1)N1CCN=C1SCc1ccc([N+](=O)[O-])cc1` here?
Its Potency is inconclusive: 29.1 µM [falling, single point].

Which Potency does the source give for `O=C(NCc1ccc2c(c1)OCO2)c1cc(Cl)ccc1Cl` here?
The Potency was inconclusive: 7.31 µM [falling, partial curve].

Which Potency does the source give for `Cc1cc(C(=O)NC2CCCc3c2cnn3-c2cccc(C)c2C)n(C)n1` (configuration not stated) here?
Its Potency is active: 0.206 µM.

Which “activity change, negative = inhibition” value does the source give for `CCS(=O)(=O)c1ccc(O)c(NC(=O)CCCC(=O)O)c1` here?
The value was inactive: 1.09%.

With `Cc1ccc(-c2noc(-c3ccc(NCc4ccco4)c([N+](=O)[O-])c3)n2)cc1` as the molecule, how does the “activity change, negative = inhibition” value read?
The value was inactive: 2%.

Which Potency does the source give for `CCOC(=O)C(=CNc1cc(C)nn1-c1ccc(Cl)cc1)C(=O)OCC` here?
The Potency was inconclusive: 18.4 µM [falling, partial curve, poor fit].

With `COc1cc(NC(=O)CC(c2ccc(C)cc2)N2Cc3ccccc3C2=O)cc(OC)c1` (configuration not stated) as the molecule, how does the Potency read?
Its Potency is inconclusive: 13 µM [falling, single point].

Which Potency does the source give for `CC(Oc1ccc(Br)cc1)C(=O)N(C)CC(=O)Nc1ccc(N2CCOCC2)cc1` (configuration not stated) here?
The Potency was inconclusive: 25.9 µM [falling, single point].

With `Cc1ccc(-c2cc(-c3ccc4c(c3)OCO4)c(C#N)c(N)n2)o1` as the molecule, how does the “activity change, negative = inhibition” value read?
The value was inactive: -11.4%.

With `Cc1sc2ncnc(Sc3ccccc3C(=O)Nc3ccccc3Cl)c2c1C` as the molecule, how does the Potency read?
The Potency was inconclusive: 20.6 µM [falling, single point].

Which Potency does the source give for `COc1ccc2cc(C3(C)NC(=O)NC3=O)ccc2c1` (configuration not stated) here?
The Potency was inconclusive: 18.4 µM [activator, single point].

Which Potency does the source give for `COc1cc(C2CC(=O)c3c([nH]c(C(=O)OCC4CCCCC4)c3C)C2)cc(OC)c1OC` (configuration not stated) here?
The Potency was active: 2.31 µM.

With `Clc1ccc2c(c1)[C@H]1OCC[C@H]1[C@@H](c1ccco1)N2` as the molecule, how does the Potency read?
Its Potency is inconclusive: 29.1 µM [activator, single point].

For `O=C(c1ccccc1)N1CCSC1=S`, which Potency is on record?
The Potency was inconclusive: 29.1 µM [falling, single point].

For `Cc1cccc(C(=O)Nc2ccc(C(=O)N/N=C/c3cccnc3)cc2)c1`, which Potency is on record?
Its Potency is inconclusive: 13 µM [falling, partial curve, poor fit].

For `COC(=O)c1c(NC(=O)c2nc(SCc3cccc(C)c3)ncc2Cl)sc2c1CCCC2`, which “activity change, negative = inhibition” value is on record?
The value was inactive: 22.8%.

With `COc1ccc(-n2nnc(-c3nc(-c4cccs4)no3)c2N)cc1OC` as the molecule, how does the Potency read?
The Potency was inconclusive: 8.2 µM [activator, partial curve, poor fit].

Which Potency does the source give for `O=C1[C@H](Cc2ccccc2)NCCCC[C@H](c2ccco2)N1Cc1ccccc1` here?
Its Potency is inconclusive: 32.6 µM [falling, single point].

Which Potency does the source give for `COc1ccc(CN(C(=O)c2oc3cc(C)c(C)cc3c2C)C2CCS(=O)(=O)C2)cc1OC` (configuration not stated) here?
The Potency was inconclusive: 20.6 µM [falling, single point].

With `CC1(C)C(=O)NCCN1C(=O)CSc1nccc(-c2ccc(Br)cc2)n1` as the molecule, how does the Potency read?
The Potency was inconclusive: 29.1 µM [falling, single point].

For `O=C(c1ccccc1)C1CCN(C(=O)c2ccc(Cl)cc2)CC1`, which Potency is on record?
The Potency was inconclusive: 2.91 µM [falling, partial curve, poor fit].

For `CCN(CC)c1ccc(Nc2nc(N3CCOCC3)c3ccccc3n2)cc1`, which Potency is on record?
Its Potency is active: 6.51 µM.

Which “activity change, negative = inhibition” value does the source give for `CC(C)(C)OC(=O)N1CCC(c2c(C(=O)N3CCN(C4CCCCC4)CC3)cnn2-c2ccccc2)CC1` here?
The value was inactive: 1.52%.

For `CCC(=O)N1CCN(c2ccccc2NC(=O)COc2cc(C)ccc2C(C)C)CC1`, which Potency is on record?
Its Potency is inconclusive: 23.1 µM [falling, partial curve, poor fit].
